Experimental data reported in patent US20050288247A1, “Inducible inactivation of synaptic transmission” (Cold Spring Harbor Laboratory, priority 2004, published 2005).
Some results were stated once for a whole list of compounds, not compound by compound. At least one structure is not confirmed: it was looked up by name or label, or the drawing left a doubt.

Tested on: synaptic transmission in acute cortical brain slices
Assay: Whole cell EPSC measurements in layer 2 pyramidal neurons in acute brain slices
Format: cell-based, mice
Conditions: 500 nM AP21967 (Sph-StxTM MIST) or 100 nM AP20187 (VAMP/Syb MIST); for inactivation of synaptic transmission: range over experiments
Description: We further characterized CID-dependent inactivation of synaptic transmission using whole cell measurements of EPSC in layer (L) 2 pyramidal neurons in acute brain slices. MIST constructs were introduced into L 3 cells in vivo using in utero viral vector mediated gene delivery (VAMP/Syb MIST) or electroporation (Sph-StxTM MIST). Synaptic transmission was evoked with an extracellular stimulation electrode placed in a band of transfected/infected neurons, below (within 200 μm) the recording pipette.
Cortical brain slices (300 μm thick) were prepared from young mice (postnatal day 9-14) using a vibrating-blade microtome (VT1000S, Leica Microsystems). Chilled cutting solution contained 110 mM choline chloride, 25 mM NaHCO3, 25 mM D-glucose, 11.6 mM sodium ascorbate, 7 mM MgSO4, 3.1 mM sodium pyruvate, 2.5 mM KCl, 1.25 mM NaH2PO4, and 0.5 mM CaCl2. Slices were then transferred to artificial cerebrospinal fluid (“ACSF”) containing 127 mM NaCl, 25 mM NaHCO3, 25 mM D-glucose, 2.5 mM KCl, 2 mM MgCl2,1 mM CaCl2, and 1.25 mM NaH2PO4, aerated with 95% O2/5% CO2. Slices in ACSF were first incubated at 34° C. for 0.5 hr, then maintained at room temperature prior to use. For recordings, ACSF contained 4 mM MgCl2, 4 mM CaCl2 and […] CPP.
Neurons were visualized with infrared differential interference contrast optics, and patched using borosilicate electrodes (resistances, 4-7 MΩ). Access resistances were in the range 10-30 MΩ. Intracellular solution contained 120 mM CsMeSO3, 20 mM CsCl, 4 mM NaCl, 10 mM HEPES, 10 mM BAPTA, 4 mM Mg2ATP, and 0.3 mM Na2GTP, 14 mM sodium phosphocreatine, 3 mM ascorbate, and 0.1 Alexa-594 (Molecular Probes); pH was adjusted to 7.25 with CsOH. Excitatory currents were measured at a holding potential of −65 mV, close to reversal for fast inhibition. MIST-expressing neurons were stimulated with tungsten bipolar electrode in the middle of transfected region, and monosynaptic responses were recorded from cells within […]. Responses were amplified (Multiclamp, Axon Instruments), filtered at 1 kHz, and digitized at 10 kHz. Custom software written in Matlab (MathWorks, Natick, Mass.) was used for electrophysiological acquisition and data analysis.
Homodimerizer AP20187, and heterodimerizer AP21967 were dissolved in DMSO to a final concentration of 100 μM and 500 μM, respectively. Following acquisition of baseline evoked responses, the appropriate dimerizer was added to the perfusion at 1:1000 dilution for final concentrations of 100 nM and 500 nM. The monomeric antagonist, AP21998, was added to 5 μM.
For in utero transgene delivery, in utero surgery was performed as described (Saito and Nakatsuji, Dev. Biol 240:237-46 (2001)). […]

Row | Compound | time course of inactivation | inactivation of synaptic transmission
1 | CC[C@H](C(=O)N1CCCC[C@H]1C(=O)O[C@H](CCc1ccc(OC)c(OC)c1)c1cccc(OCC(=O)NCC(CNC(=O)COc2cccc([C@@H](CCc3ccc(OC)c(OC)c3)OC(=O)[C@@H]3CCCCN3C(=O)[C@@H](CC)c3cc(OC)c(OC)c(OC)c3)c2)CN(C)C)c1)c1cc(OC)c(OC)c(OC)c1 [AP20187] | 10 to 30 min | 50-100%
2 | AP21967 | 10 to 30 min | 50-100%
